Measurements reported in patent publication US20100322948A1, “Bone morphogenetic protein (BMP)-binding domains of proteins of the repulsive guidance molecule (RGM) protein family and functional fragments thereof, and use of same” (ABBOTT GMBH & CO. KG, priority 2007, published 2010).
Results are given in words; binding and its absence hold for the method and conditions named. Some binding calls cover weakened binding; strength is not graded here. For some of these results: Where a sequence is shown, tags or fusion partners need not be part of it. One block for each binder: values may come before it.

What was measured:
RGMA-Fc (human) [1] = target: T1, RGMA-Fc (human) (UniProt Q96B86); experiment: ELISA, RGMA-Fc immobilised, BMP-4 titrated, detection with anti-BMP-4 biotin antibody
T1 sequence: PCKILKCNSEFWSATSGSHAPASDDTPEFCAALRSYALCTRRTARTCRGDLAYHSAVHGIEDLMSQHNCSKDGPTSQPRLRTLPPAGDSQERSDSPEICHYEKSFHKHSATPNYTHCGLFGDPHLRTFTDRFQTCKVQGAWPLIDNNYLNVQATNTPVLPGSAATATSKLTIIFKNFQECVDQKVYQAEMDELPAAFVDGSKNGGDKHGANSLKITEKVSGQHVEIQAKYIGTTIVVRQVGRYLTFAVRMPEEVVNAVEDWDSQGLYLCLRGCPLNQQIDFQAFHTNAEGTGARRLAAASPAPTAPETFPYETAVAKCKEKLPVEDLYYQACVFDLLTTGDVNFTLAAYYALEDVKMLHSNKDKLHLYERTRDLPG

RGMA-Fc (human) [2] = target: T1, RGMA-Fc (human); experiment: ELISA, RGMA-Fc immobilised, BMP-2 titrated, detection with anti-BMP-2 biotin antibody
[3] = target: T2, Recombinant human BMP-4 (human) (UniProt P12644); experiment: ELISA on coated BMP-4 (2,5 µg/ml); control series of R&D RGMA, Konz taken as that of RGMA
T2 sequence (looked up): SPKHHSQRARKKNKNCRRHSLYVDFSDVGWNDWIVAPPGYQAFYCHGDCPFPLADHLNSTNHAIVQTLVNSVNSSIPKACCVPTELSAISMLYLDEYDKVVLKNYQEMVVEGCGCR

[4] = target: T3, Recombinant human BMP-2 (human) (UniProt P12643); experiment: ELISA, immobilised Fc fusion protein, BMP-2 detected with anti-BMP-2 biotin antibody
T3 sequence (looked up): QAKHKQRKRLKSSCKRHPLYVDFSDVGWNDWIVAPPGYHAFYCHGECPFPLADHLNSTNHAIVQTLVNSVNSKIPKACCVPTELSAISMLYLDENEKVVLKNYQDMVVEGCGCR

binding (RGMA-Fc (human) [1]): binds
B1: Recombinant human BMP-4 (ligand, UniProt P12644 293-408, looked up)
chain: SPKHHSQRARKKNKNCRRHSLYVDFSDVGWNDWIVAPPGYQAFYCHGDCPFPLADHLNSTNHAIVQTLVNSVNSSIPKACCVPTELSAISMLYLDEYDKVVLKNYQEMVVEGCGCR

binding (RGMA-Fc (human) [2]): binds
B2: Recombinant human BMP-2 (ligand, UniProt P12643 283-396, looked up)
chain: QAKHKQRKRLKSSCKRHPLYVDFSDVGWNDWIVAPPGYHAFYCHGECPFPLADHLNSTNHAIVQTLVNSVNSKIPKACCVPTELSAISMLYLDENEKVVLKNYQDMVVEGCGCR

binding [3]: binds
B3: R&D RGMA (protein, human, UniProt Q96B86 48-422, looked up)
recombinant human RGM A: CKILKCNSEFWSATSGSHAPASDDTPEFCAALRSYALCTRRTARTCRGDLAYHSAVHGIEDLMSQHNCSKDGPTSQPRLRTLPPAGDSQERSDSPEICHYEKSFHKHSATPNYTHCGLFGDPHLRTFTDRFQTCKVQGAWPLIDNNYLNVQVTNTPVLPGSAATATSKLTIIFKNFQECVDQKVYQAEMDELPAAFVDGSKNGGDKHGANSLKITEKVSGQHVEIQAKYIGTTIVVRQVGRYLTFAVRMPEEVVNAVEDWDSQGLYLCLRGCPLNQQIDFQAFHTNAEGTGARRLAAASPAPTAPETFPYETAVAKCKEKLPVEDLYYQACVFDLLTTGDVNFTLAAYYALEDVKMLHSNKDKLHLYERTRDLPG

binding [4]: binds
B4: RGMA-Fc (Fc fusion, not shown: a dimerising Fc or GST)
chain: PCKILKCNSEFWSATSGSHAPASDDTPEFCAALRSYALCTRRTARTCRGDLAYHSAVHGIEDLMSQHNCSKDGPTSQPRLRTLPPAGDSQERSDSPEICHYEKSFHKHSATPNYTHCGLFGDPHLRTFTDRFQTCKVQGAWPLIDNNYLNVQATNTPVLPGSAATATSKLTIIFKNFQECVDQKVYQAEMDELPAAFVDGSKNGGDKHGANSLKITEKVSGQHVEIQAKYIGTTIVVRQVGRYLTFAVRMPEEVVNAVEDWDSQGLYLCLRGCPLNQQIDFQAFHTNAEGTGARRLAAASPAPTAPETFPYETAVAKCKEKLPVEDLYYQACVFDLLTTGDVNFTLAAYYALEDVKMLHSNKDKLHLYERTRDLPG
